Molecules are shown by their SMILES. The list shows a part of the results. Shown are side measurements of this screen, not its main read-out; they come without a call. Compounds called inactive in the main read-out are mostly missing here. The note in brackets gives the kind of curve behind each potency; many fits are weak.

The source of these data is PubChem BioAssay AID2685 (National Center for Advancing Translational Sciences (NCATS), 2010).

The nature of the experiment: qHTS Assay for Lipid Storage Modulators in Drosophila S3 Cells.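 As to cell number change: cells counted by Cell Tracker Red CMTPX staining in the red channel.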 To be noted: BODIPY lipid droplet fluorescence, 18-24 h; for cell number change: measured here: cell count max response, cells fed with added oleic acid. Put shortly:
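Drosophila S3 cells got compounds at several concentrations plus oleic acid (400 uM solution). Laser-scanning cytometry with 488 nm excitation read lipid droplets at 500-530 nm and cells at 575-640 nm. Percent activity was relative to 20 uM Triacsin C.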

Setting [1] is: measured here: cell number channel AC50, cells fed with added oleic acid.
The mark [2] stands for this setting: measured here: lipid fluorescence (Fed channel) AC50, cells fed with added oleic acid.

The AC50 is the concentration at which the activity in the assay is half-maximal. Turning to `O=C(CCNS(=O)(=O)c1ccccc1)OCC(=O)c1ccc(Cl)cc1`, the cell number change was -7.6%. For the same molecule, under setting [1], the AC50 is 0.291 µM [falling, full curve, poor fit].

With `COc1ccc(C(=O)NNC(=O)CCC(=O)Nc2ccc(C)cc2C)cc1`, the cell number change was found to be 17.5%.

With `O=C(Nc1cccc(-c2nc3cc(Cl)ccc3o2)c1)C1CCCO1` (stereo unspecified), the cell number change came to 3.9%.

Regarding `CCN1CCN(CC(=O)NC2CCCC2)C(=O)C1=O`, under setting [2], the AC50 is 32.6 µM [falling, single point].

On to `COC(=O)c1c(C)[nH]c(C(=O)OCc2ccc(F)cc2)c1C`, for which the cell number change was -38.9%. For the same molecule, the AC50 under setting [1] is 5.17 µM [falling, partial curve, poor fit]. Also, under setting [2], the AC50 was 0.164 µM [falling, full curve, poor fit].

As to `CC1=C(C(=O)OCc2cc(C)on2)N2C(=O)[C@@H](NC(=O)OCc3cc(C)on3)[C@H]2SC1`, the cell number change was -2.17%. Moreover, the AC50 under setting [2] was 2.91 µM [falling, single point].

As to `CC(C)CNC(=O)COC(=O)c1ccc(Cl)c(S(N)(=O)=O)c1`, the cell number change was -11.2%.

As to `Cc1cccc(N(C(=O)c2nsc(Cl)c2Cl)C(C(=O)NC2CCCC2)c2ccc(O)cc2)c1C` (stereo unspecified), the cell number change is 7.96%. Further, the half-maximal activity concentration (AC50) under setting [2] was 25.9 µM [rising, single point].

For `CC1Cc2ccccc2N1C(=O)c1cnsn1` (stereo unspecified), the cell number change is -9.17%. For the same molecule, under setting [1], the AC50 is 0.651 µM [falling, single point]. The AC50 under setting [2] is 29.1 µM [rising, single point].

On to `CC1CN(C(=O)N(C)C)CCN1C(=O)N(C)C` (stereo unspecified), for which the cell number change was found to be 0.74%. In addition, under setting [2], the AC50 was 29.1 µM [falling, single point].

For `O=C(CN1C(=O)C2CC=CCC2C1=O)Nc1nnc(SCc2ccc(Cl)cc2)s1` (stereo unspecified), the cell number change amounted to 26.2%.

For `Fc1ccccc1C(c1nnnn1Cc1ccc2c(c1)OCO2)N1CCN(Cc2ccco2)CC1` (stereo unspecified), the cell number change is -22.9%. The AC50 under setting [2] is 16.4 µM [rising, single point].

As to `O=C(NCCc1ccc(F)cc1)N1CCOCC1`, the cell number change is 7.94%.

On to `CCOC(=O)N1CCC2(CC1)C(C#N)=C(N)Oc1n[nH]c(C)c12`, for which the AC50 was 6.51 µM [falling, single point] under setting [1] and 6.51 µM [falling, single point] under setting [2].

With `COCCn1c(=NC(=O)c2cc(Cl)sc2Cl)sc2cc(S(N)(=O)=O)ccc21`, the cell number change was 40.8%. Moreover, the AC50 under setting [1] is 9.2 µM [rising, single point]. In addition, the AC50 under setting [2] is 13 µM [falling, single point].

As for `COC(=O)c1cc(S(=O)(=O)NCc2ccc3c(c2)OCO3)c[nH]1`, the cell number change is -8.68%.

As for `CCOC(=O)N1CCC(NC(=O)c2cc(C(=O)NCc3ccc(F)cc3)ccc2CO)CC1`, the cell number change was -47.7%. Further, under setting [1], the concentration at half-maximal activity (AC50) was 20.6 µM [falling, single point].

`O=C(Nc1ccccc1)Nc1cccc(C(F)(F)F)c1`: the cell number change is -46%. Further, the AC50 under setting [1] is 0.00461 µM [falling, full curve, poor fit]. Further, the AC50 under setting [2] is 0.82 µM [falling, full curve].

With `CCS(=O)(=O)c1ccc2oc(SCC(=O)NC3CCCC(C)C3C)nc2c1` (stereo unspecified), the cell number change was -61.9%. Under setting [1], the AC50 is 23.1 µM [falling, single point].

On to `COc1ccc(N=c2scc(-c3ccc(S(=O)(=O)N4CCOCC4)cc3)n2CCCO)cc1`, for which the cell number change is -57.9%. Under setting [1], the AC50 is 8.2 µM [falling, partial curve]. The AC50 under setting [2] is 5.17 µM [falling, partial curve].

As to `O=C(O)CCCNc1c(C(=O)Nc2ccc(Cl)cc2)cc([N+](=O)[O-])cc1[N+](=O)[O-]`, the cell number change is 9.97%.

As to `COc1ccc(CCNC(=O)COC(=O)C2CC2C)cc1OC` (stereo unspecified), the cell number change was -33.5%. In addition, under setting [1], the AC50 is 18.4 µM [falling, partial curve].

On to `Nc1cnn(Cc2ccc(F)cc2)c1`, for which the cell number change was -14.5%. For the same molecule, the AC50 under setting [1] was 2.59 µM [rising, partial curve].

For the molecule `O=C(NC(=S)NCC1CCCO1)c1cccc([N+](=O)[O-])c1` (stereo unspecified), the cell number change was -56.7%. Further, under setting [1], the AC50 is 18.4 µM [falling, single point]. For the same molecule, the AC50 under setting [2] was 29.1 µM [falling, single point].

On to `C/C(N)=C(/C#N)C(=O)CSc1nnc(Nc2cccc(C)c2C)s1`, for which the cell number change is -25%. The AC50 under setting [2] was 0.146 µM [falling, full curve, poor fit].

With `O=C(N/N=C/C=C/c1ccc2c(c1)OCO2)c1ccc([N+](=O)[O-])cc1`, the cell number change was -2.85%. Moreover, the AC50 under setting [1] is 0.092 µM [rising, full curve, poor fit]. Moreover, under setting [2], the AC50 was 0.13 µM [rising, full curve, poor fit].

Regarding `C#CC[N+]1(CC#Cc2ccccc2)CCOCC1`, the cell number change is -3.04%. Besides, the concentration at half-maximal activity (AC50) under setting [1] is 0.326 µM [rising, full curve, poor fit].

For the molecule `Cc1ccc(S(=O)(=O)N2CCN(C(=O)Cn3c(=O)cnc4ccccc43)CC2)cc1`, the cell number change was -9.9%. Besides, the half-maximal activity concentration (AC50) under setting [2] was 2.31 µM [falling, single point].

As to `Cc1nc2c3ccccc3nc(SCC(=O)c3ccc(Cl)cc3)n2n1`, the cell number change came out at 31.4%. For the same molecule, the AC50 under setting [1] was 1.16 µM [rising, full curve]. Further, the AC50 under setting [2] was 3.26 µM [rising, partial curve].

`O=C(CCNC(=O)c1ccc(Cl)cc1)NCC(c1ccco1)N1CCCCC1` (stereo unspecified): the cell number change came out at 9.45%. For the same molecule, the half-maximal activity concentration (AC50) under setting [2] was 0.82 µM [falling, full curve, poor fit].

As to `O=C(CN1CCN(C(=O)C2CCC2)CC1)Nc1ccc(F)cc1`, the cell number change is 23.1%. The AC50 under setting [2] was 0.164 µM [rising, full curve].

On to `CC(=O)C1=C(O)C(=O)N(CCN2CCOCC2)C1c1ccccc1` (stereo unspecified), for which the AC50 under setting [2] was 23.1 µM [falling, partial curve].

With `COc1cccc(OC2OC3COC(C)(C)OC3C(O)C2NC(C)=O)c1` (stereo unspecified), the cell number change was determined as 11.9%.

For `Fc1ccccc1Cc1noc(CN(Cc2ccccn2)CC2CCCO2)n1` (stereo unspecified), the cell number change was -2.34%.

For `O=C(NC1CCCC1)C(c1ccc(N2CCOCC2)cc1)N(Cc1ccccc1)C(=O)c1ccco1` (stereo unspecified), the cell number change is -2.94%. Also, under setting [2], the AC50 was 0.00517 µM [falling, full curve, poor fit].

Turning to `O=C(NNc1nc2ccccc2s1)Nc1ccccc1`, the cell number change was determined as 36.8%. In addition, the AC50 under setting [2] was 16.4 µM [rising, single point].

Take `CCn1c(=O)cc(SCC(=O)NCC2CCCO2)c2ccccc21` (stereo unspecified): the AC50 under setting [2] was 2.91 µM [rising, single point].

`Nc1nc(SCC(=O)Nc2ccc(Cl)c([N+](=O)[O-])c2)n[nH]1`: the cell number change is 7.64%. Besides, the half-maximal activity concentration (AC50) under setting [2] was 11.6 µM [falling, partial curve].

`CC1Oc2ccccc2N(CC(=O)Nc2ccc(F)cc2)C1=O` (stereo unspecified): the cell number change amounted to 5.51%. In addition, the AC50 under setting [2] is 25.9 µM [rising, single point].

Regarding `COc1ccc(/C=C(\C#N)C(=O)OCC(=O)Nc2c(C)cccc2C(C)C)cc1`, the AC50 under setting [1] is 0.146 µM [rising, full curve, poor fit].

As to `COC(=O)Cn1c(=NC(=O)c2nc3ccccc3s2)sc2cc(S(C)(=O)=O)ccc21`, the cell number change was 22.9%. Further, the AC50 under setting [2] was 0.0058 µM [rising, full curve, poor fit].

In the case of `Nc1n[nH]c2c1C1(CCCC1)Cc1ccccc1-2`, the cell number change is -31.2%. Moreover, the concentration at half-maximal activity (AC50) under setting [1] was 20.6 µM [falling, partial curve, poor fit].

On to `CC1(C)Cc2ccccc2C(=NC(Cc2ccccc2)C(=O)O)N1` (stereo unspecified), for which the cell number change was 15.5%.

`COC(=O)[C@H](Cc1ccccc1)NC(=O)Cn1ccc(NC(=O)OCc2ccccc2)nc1=O`: the cell number change was -0.129%. Also, the AC50 under setting [1] is 0.058 µM [rising, partial curve, poor fit]. Moreover, the AC50 under setting [2] was 0.103 µM [falling, full curve, poor fit].

Turning to `COC(=O)c1ccc(OCCOc2ccccc2C)cc1`, the cell number change turned out to be 0.529%.

With `CCc1ccc(NC(=O)CSc2nc(=O)n(CCCN3CCOCC3)c3c2CCC3)cc1`, the cell number change was -11.6%.

Consider `CCOc1ccc(N(CC(=O)NCc2cccnc2)S(=O)(=O)c2ccc(F)cc2)cc1`, for which the cell number change worked out at 38%. Further, the AC50 under setting [1] is 46.1 µM [rising, single point]. For the same molecule, the concentration at half-maximal activity (AC50) under setting [2] was 29.1 µM [rising, single point].

With `N/C(=N\OC(=O)c1ccc(Br)o1)c1ccccn1`, the cell number change is -40.9%.

Take `Cn1c(=O)[nH]c(=O)c2c1nc(Br)n2CCCO`: the cell number change is 1.76%. Besides, the AC50 under setting [2] was 5.17 µM [rising, partial curve].

Take `Cc1ccc2[nH]c(CNC(=O)c3ccccc3F)cc2c1`: the cell number change is -2.89%. Also, the AC50 under setting [2] is 11.6 µM [rising, partial curve].

For the molecule `CC(C)(c1ccccc1)c1ccc(OCC(O)CNC2CCN(Cc3ccccc3)CC2)cc1` (stereo unspecified), the cell number change was -134%. Moreover, the AC50 under setting [1] is 29.1 µM [falling, single point].

Take `COc1ccc(/C=N/NC(=O)c2cccnc2)cc1`: the cell number change is 13.4%. Besides, the AC50 under setting [2] was 0.146 µM [rising, full curve, poor fit].

In the case of `Clc1ccc(OCc2nnc(-c3ccccc3Br)o2)c(Cl)c1`, the cell number change was -8.14%. Besides, the AC50 under setting [1] is 0.366 µM [rising, single point].

For `CCOC(=O)c1sc(=NC(=O)CCSc2ccccc2)n(C)c1C`, the AC50 under setting [2] is 10.3 µM [rising, partial curve].

As for `O=C(CN1CCOCC1)NCCC12CC3CC(CC(C3)C1)C2`, the cell number change was -46.6%. Besides, the AC50 under setting [1] is 3.26 µM [falling, full curve]. Further, the AC50 under setting [2] is 20.6 µM [falling, partial curve].

For `Cc1onc(-c2ccccc2)c1C(=O)n1nnc2ccccc21`, the cell number change was -174%. For the same molecule, the AC50 under setting [1] was 29.1 µM [falling, single point]. The AC50 under setting [2] was 29.1 µM [falling, single point].

With `CC(=O)CC(=O)Nc1ccc(Cl)cn1`, the cell number change was -54.7%. For the same molecule, under setting [1], the AC50 was 29.1 µM [falling, single point]. Further, the AC50 under setting [2] was 20.6 µM [falling, single point].

For `Cc1cc(NC(=O)Cn2nc(C(F)(F)F)c3c2CCC3)n(-c2ccccc2)n1`, the AC50 under setting [2] was 29.1 µM [falling, single point].

`COc1ccc(OC)c(NC(=O)CSc2nncc3ccccc23)c1`: the cell number change is -23.8%. The AC50 under setting [2] is 5.8 µM [rising, single point].

As to `CC1(C)Cc2noc(N)c2C(C)(C)N1OC(=O)c1scc2c1OCCO2`, the cell number change was -9.07%. The AC50 under setting [2] was 0.164 µM [falling, full curve, poor fit].

With `O=C1NC(c2ccccc2)=NC1(NS(=O)(=O)c1ccc(Cl)cc1)C(F)(F)F` (stereo unspecified), the cell number change turned out to be 9%. Besides, the concentration at half-maximal activity (AC50) under setting [2] is 0.92 µM [falling, full curve, poor fit].
